Laboratory results: PubChem BioAssay AID662 (National Center for Advancing Translational Sciences (NCATS), 2007)
The list shows a part of the results. Shown are side measurements of this screen, not its main read-out; they come without a call. Most of these compounds were active or inconclusive in the main read-out, so they are no random draw. Potencies come from curve fits of mixed quality, noted in brackets.

test: Cell signaling CRE-BLA (Fsk stim); settings: CHO CRE-bla reporter (cAMP response element driving beta-lactamase), forskolin EC10, beta-lactamase ratio; measured here: 460 nm blue channel
In short: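 AC50 values, positive or negative, reflect shifts in EC10 NKH 477-induced CRE-bla reporter activity in CHO cells. Incubation lasted 3 h at 37 °C before CCF4 substrate (2 h, room temperature) and ratiometric 460/530 nm reading.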

| SMILES | AC50 |
| --- | --- |
| CCN(CC)S(=O)(=O)c1cccc(-c2nc3n(n2)Cc2ccccc2-3)c1 | 2.51 µM [rising, full curve] |
| COc1ccc(-c2nc3cnc(N4CCN(C)CC4)nc3n(C)c2=O)cc1 | 6.31 µM [rising, partial curve] |
| COc1ccc2nc(SCC(N)=O)[nH]c2c1 | 0.00316 µM [falling, full curve, poor fit] |
| Cc1ccc2nc(NCCO)nc(-c3ccccc3)c2c1 | 12.6 µM [rising, partial curve] |
| O=C(COc1ncnc2sccc12)Nc1ccc2c(c1)OCCO2 | 3.16 µM [falling, single point] |
| COc1ccc(S(=O)(=O)N2CCCC2C(=O)Nc2nnc(-c3cccnc3)s2)cc1 (stereo not drawn) | 0.316 µM [falling, partial curve, poor fit] |
| CCCN(CCC)c1nc2ccccc2nc1C(C#N)C(=O)OCCOC (stereo not drawn) | 10 µM [rising, partial curve] |
| Cc1ccccc1-c1nc(CS(=O)(=O)CC(=O)N2CCc3ccccc3C2)c(C)o1 | 12.6 µM [falling, partial curve] |
| C=CCOc1ccc(/C(O)=C2\C(=O)C(=O)N(CCCOC)C2c2ccncc2)cc1 (stereo not drawn) | 5.01 µM [falling, single point] |
| CCOC(=O)c1sc(/N=C/N(C)C)c(C(=O)OCC)c1C | 12.6 µM [rising, partial curve] |
| Cc1ccc(S(=O)(=O)N2CCOCC2)cc1C(=O)Nc1ccc(-c2cn3ccsc3n2)cc1 | 0.158 µM [falling, full curve, poor fit] |
| CS(=O)(=O)Nc1cccc(-c2ccc3ncnc(NC4CCNCC4)c3c2)c1 | 3.16 µM [rising, single point] |
| COc1cc(Nc2cc(C)nc3ncnn23)cc(OC)c1OC | 10 µM [rising, single point] |
| COCCn1c(=O)c(-c2ccc(Cl)cc2)nc2cnc(OC)nc21 | 12.6 µM [rising, partial curve] |
| CC(Cc1ccccc1)N/C=C1/CC(=O)NC1=O (stereo not drawn) | 0.631 µM [rising, single point] |
| O=C(O)c1cc(C(=O)O)c(-c2ccccc2)c(C(=O)O)c1 | 0.0251 µM [falling, full curve, poor fit] |
| CCOC(=O)N1CCN(Cc2nc3c(c(=O)n(C)c(=O)n3C)n2Cc2ccccc2C)CC1 | 5.01 µM [falling, single point] |
| CCn1cc(C(=O)NCCC2=CCCCC2)c(=O)c2cc(S(=O)(=O)N(C)C)ccc21 | 2.51 µM [rising, partial curve] |

Single values from the entries so far:
AC50, CCOC(=O)c1sc(/N=C/N(C)C)c(C(=O)OCC)c1C reads 12.6 µM [rising, partial curve]
AC50, CC(Cc1ccccc1)N/C=C1/CC(=O)NC1=O (stereo not drawn) reads 0.631 µM [rising, single point]
